Values quoted from earlier work, collected in article PMC9409043, “Serotonin 5-HT6 Receptor Ligands and Butyrylcholinesterase Inhibitors Displaying Antioxidant Activity—Design, Synthesis and Biological Evaluation of Multifunctional Agents against Alzheimer’s Disease” (International Journal of Molecular Sciences, 2022).

Tested on: brain concentrations of malondialdehyde
Settings: scopolamine and lipopolysaccharide models ref 46; cited from earlier work

COc1cc2c(cc1OC)C(=O)C(CC1CCN(Cc3ccccc3)CC1)C2 (stereo not shown) [Donepezil]
antioxidant activity in vivo: reducing the brain concentrations of malondialdehyde
